In the supplement of paper PMC4604168 (melanoma cell lines):
This is one part of the list. Many values rest on one well or one pass, so single values are uncertain.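 Cells were imaged in 1,536-well plates, and nuclei stained with an antibody against cleaved PARP were counted against all DNA-stained nuclei to give the apoptosis fraction. Screening doses were chosen to leave most cells alive, and resting and induced cleaved-PARP levels differ strongly between cell lines.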

Tests used:
Assay in all cases: cleaved PARP positive nuclei fraction relative to DMSO control; melanoma cells; higher = more apoptosis
Conditions in all cases: library dose: low library concentration; 72 h
MZ2-MEL = test system: MZ2-MEL
MeWo = test system: MeWo
RPMI7951 = test system: RPMI7951
RVH-421 = test system: RVH-421
SkMel28 = test system: SkMel28
SkMel2 = test system: SkMel2
SkMel30 = test system: SkMel30
SkMel5 = test system: SkMel5
UACC257 = test system: UACC257
UACC62 = test system: UACC62
WM115 = test system: WM115
WM1716 = test system: WM1716
WM1745 = test system: WM1745
WM3526 = test system: WM3526
WM3619 = test system: WM3619
WM451Lu = test system: WM451Lu

Row | Structure (SMILES) | cleaved PARP positive nuclei fraction (MZ2-MEL) [%] | cleaved PARP positive nuclei fraction (MeWo) [%] | cleaved PARP positive nuclei fraction (RPMI7951) [%] | cleaved PARP positive nuclei fraction (RVH-421) [%] | cleaved PARP positive nuclei fraction (SkMel28) [%] | cleaved PARP positive nuclei fraction (SkMel2) [%] | cleaved PARP positive nuclei fraction (SkMel30) [%] | cleaved PARP positive nuclei fraction (SkMel5) [%] | cleaved PARP positive nuclei fraction (UACC257) [%] | cleaved PARP positive nuclei fraction (UACC62) [%] | cleaved PARP positive nuclei fraction (WM115) [%] | cleaved PARP positive nuclei fraction (WM1716) [%] | cleaved PARP positive nuclei fraction (WM1745) [%] | cleaved PARP positive nuclei fraction (WM3526) [%] | cleaved PARP positive nuclei fraction (WM3619) [%] | cleaved PARP positive nuclei fraction (WM451Lu) [%]
1 | Cc1cc(Nc2cc(N3CCN(C)CC3)nc(/C=C/c3ccccc3)n2)n[nH]1 + CC(C)CCN1c2nc(Nc3cc(F)c(O)c(F)c3)ncc2N(C)C(=O)C1C [BID1870] (first compound 0.04 µM, partner dose 0.2 µM) | 68.8 | 95.9 | 69.2 | 277 | 103 | 80.6 | 303 | 211 | 264 | 210 | 86.2 | 56.1 | 93.2 | 68.6 | 89.3 | 95.3
2 | Cn1c(=O)n(-c2ccc(C(C)(C)C#N)cc2)c2c3cc(-c4cnc5ccccc5c4)ccc3ncc21 + Cn1cncc1[C@@](N)(c1ccc(Cl)cc1)c1ccc2c(c1)c(-c1cccc(Cl)c1)cc(=O)n2C [tipifarnib] (first compound 0.004 µM, partner dose 0.01 µM) | 29.8 | 33.4 | 100 | 120 | 214 | 141 | 92.5 | 92.2 | 133 | 291 | 248 | 114 | 214 | 66.2 | 116 | 398
3 | Nc1ncn([C@H]2C[C@H](O)[C@@H](CO)O2)c(=O)n1 [decitabine] + CC(C)CCN1c2nc(Nc3cc(F)c(O)c(F)c3)ncc2N(C)C(=O)C1C [BID1870] (first compound 0.1 µM, partner dose 0.2 µM) | 47.5 | 120 | 774 | 245 | 100 | 140 | 38.4 | 69.2 | 49.8 | 78.9 | 159 | 266 | 81.9 | 77.8 | 151 | 130
4 | O=C(O)c1ccc2c(c1)nc(Nc1cccc(Cl)c1)c1ccncc12 + COc1ccc2c(c1)CCC1C2CCC2(C)C(NCCCCCCN3C(=O)C=CC3=O)CCC12 [U73122] (first compound 0.4 µM, partner dose 0.4 µM) | 110 | 86.2 | 143 | 180 | 104 | 66.7 | 71 | 146 | 49.2 | 90.1 | 106 | 181 | 198 | 170 | 87.9 | 67.9
5 | CCCS(=O)(=O)Nc1ccc(F)c(C(=O)c2c[nH]c3ncc(Cl)cc23)c1F + O=C(CCCCCCC(=O)Nc1ccccc1)NO [vorinostat] (first compound 0.08 µM, partner dose 0.08 µM) | 100 | 61.4 | 59.1 | 90.6 | 144 | 143 | 83.2 | 32.8 | 72.1 | 123 | 72.4 | 36.5 | 82.2 | 39.1 | 206 | 69.6
6 | CC(C)C[C@H](NC(=O)[C@H](Cc1ccccc1)NC(=O)c1cnccn1)B(O)O [Bortezomib] + CC(C)(C)c1cnc(CSc2cnc(NC(=O)C3CCNCC3)s2)o1 [SNS-032] (first compound 0.001 µM, partner dose 0.01 µM) | 202 | 180 | 734 | 185 | 62.5 | 138 | 62.6 | 57.5 | 37.7 | 35.7 | 67.1 | 407 | 145 | 121 | 634 | 48.3
7 | CS(=O)(=O)CCNCc1ccc(-c2ccc3ncnc(Nc4ccc(OCc5cccc(F)c5)c(Cl)c4)c3c2)o1 [lapatinib] + CC1(C)NC(=O)N(c2ccc([N+](=O)[O-])c(C(F)(F)F)c2)C1=O [nilutamide] (first compound 0.8 µM, partner dose 1 µM) | 27.2 | 87.3 | 106 | 38.5 | 39.4 | 263 | 52.2 | 35.4 | 29 | 54.5 | 32.6 | 80.2 | 95.6 | 125 | 182 | 26
8 | Cn1c(=O)n(-c2ccc(C(C)(C)C#N)cc2)c2c3cc(-c4cnc5ccccc5c4)ccc3ncc21 + CCN(CC)CCCCNc1ncc2cc(-c3cc(OC)cc(OC)c3)c(NC(=O)NC(C)(C)C)nc2n1 [PD173074] (first compound 0.004 µM, partner dose 0.1 µM) | 167 | 50.1 | 69.6 | 65.4 | 275 | 27.7 | 102 | 67.1 | 236 | 277 | 143 | 246 | 82.2 | 80.2 | 103 | 138
9 | CNC(=O)c1cc(Oc2ccc(NC(=O)Nc3ccc(Cl)c(C(F)(F)F)c3)cc2)ccn1 [sorafenib] + COC(=O)c1sccc1S(=O)(=O)Nc1ccc(Nc2ccccc2)cc1OC [GSK0660] (first compound 0.4 µM, partner dose 1 µM) | 82.3 | 138 | 83.7 | 88.2 | 136 | 59.3 | 44.1 | 33 | 141 | 131 | 120 | 99.6 | 99.1 | 77.6 | 118 | 56.4
10 | O=C(O)c1ccc2c(c1)nc(Nc1cccc(Cl)c1)c1ccncc12 + C[C@@H]1CCN(C(=O)CC#N)C[C@@H]1N(C)c1ncnc2[nH]ccc12 [CP690550] (first compound 0.4 µM, partner dose 1 µM) | 43.5 | 107 | 138 | 56 | 53.7 | 127 | 61.3 | 28.4 | 127 | 77.2 | 53.9 | 118 | 79.5 | 60 | 94.4 | 117
11 | C=C(c1ccc(C(=O)O)cc1)c1cc2c(cc1C)C(C)(C)CCC2(C)C [Bexarotene] + CC(C)CCN1c2nc(Nc3cc(F)c(O)c(F)c3)ncc2N(C)C(=O)C1C [BID1870] (first compound 2 µM, partner dose 0.2 µM) | 164 | 150 | 160 | 68.6 | 218 | 81.7 | 181 | 76.8 | 137 | 162 | 197 | 396 | 103 | 91 | 166 | 132
12 | Nc1ccn([C@@H]2O[C@H](CO)[C@@H](O)C2(F)F)c(=O)n1 [gemcitabine] + NC(=O)Nc1cc(-c2cccc(F)c2)sc1C(=O)N[C@H]1CCCNC1 [AZD7762] (first compound 0.0004 µM, partner dose 0.02 µM) | 187 | 58.8 | 132 | 73.7 | 175 | 91.9 | 53.8 | 48.3 | 91.6 | 87.3 | 79 | 284 | 183 | 65.9 | 315 | 84.3
13 | Nc1ccn([C@@H]2O[C@H](CO)[C@@H](O)C2(F)F)c(=O)n1 [gemcitabine] + Oc1nc(-c2ccc(C(F)(F)F)cc2)nc2c1CSCC2 [XAV939] (first compound 0.0004 µM, partner dose 2 µM) | 158 | 79.4 | 37.8 | 74.7 | 81.5 | 57.3 | 17.4 | 41 | 107 | 198 | 58.6 | 196 | 300 | 250 | 15.1 | 237
14 | Nc1ccn([C@@H]2O[C@H](CO)[C@@H](O)C2(F)F)c(=O)n1 [gemcitabine] + COc1cc2c(Oc3ccc4[nH]c(C)cc4c3F)ncnc2cc1OCCCN1CCCC1 [cediranib] (first compound 0.0004 µM, partner dose 0.4 µM) | 64.3 | 91.7 | 65.2 | 49.2 | 271 | 126 | 69.3 | 304 | 107 | 105 | 55.1 | 184 | 164 | 58.4 | 117 | 147
15 | O=C(O)[C@@H]1[O][Sb](=[O])([O][Sb]2(=[O])[O][C@H]([C@H](O)CO)[C@H](O)[C@H](C(=O)O)[O]2)[O][C@H]([C@H](O)CO)[C@@H]1O (stereo not given in full) [stibogluconate] + COc1cc2c(Oc3ccc4[nH]c(C)cc4c3F)ncnc2cc1OCCCN1CCCC1 [cediranib] (first compound 2 µM, partner dose 0.4 µM) | 49.6 | 49.6 | 172 | 76.2 | 92.1 | 134 | 64 | 37.9 | 255 | 62.8 | 95.2 | 140 | 101 | 55.6 | 77 | 97.3

As a working copy, part of the list above.
Row | Structure (SMILES) | cleaved PARP positive nuclei fraction (MZ2-MEL) [%] | cleaved PARP positive nuclei fraction (MeWo) [%] | cleaved PARP positive nuclei fraction (RPMI7951) [%] | cleaved PARP positive nuclei fraction (RVH-421) [%] | cleaved PARP positive nuclei fraction (SkMel28) [%] | cleaved PARP positive nuclei fraction (SkMel2) [%] | cleaved PARP positive nuclei fraction (SkMel30) [%] | cleaved PARP positive nuclei fraction (SkMel5) [%] | cleaved PARP positive nuclei fraction (UACC257) [%] | cleaved PARP positive nuclei fraction (UACC62) [%] | cleaved PARP positive nuclei fraction (WM115) [%] | cleaved PARP positive nuclei fraction (WM1716) [%] | cleaved PARP positive nuclei fraction (WM1745) [%] | cleaved PARP positive nuclei fraction (WM3526) [%] | cleaved PARP positive nuclei fraction (WM3619) [%] | cleaved PARP positive nuclei fraction (WM451Lu) [%]
8 | Cn1c(=O)n(-c2ccc(C(C)(C)C#N)cc2)c2c3cc(-c4cnc5ccccc5c4)ccc3ncc21 + CCN(CC)CCCCNc1ncc2cc(-c3cc(OC)cc(OC)c3)c(NC(=O)NC(C)(C)C)nc2n1 [PD173074] (first compound 0.004 µM, partner dose 0.1 µM) | 167 | 50.1 | 69.6 | 65.4 | 275 | 27.7 | 102 | 67.1 | 236 | 277 | 143 | 246 | 82.2 | 80.2 | 103 | 138
9 | CNC(=O)c1cc(Oc2ccc(NC(=O)Nc3ccc(Cl)c(C(F)(F)F)c3)cc2)ccn1 [sorafenib] + COC(=O)c1sccc1S(=O)(=O)Nc1ccc(Nc2ccccc2)cc1OC [GSK0660] (first compound 0.4 µM, partner dose 1 µM) | 82.3 | 138 | 83.7 | 88.2 | 136 | 59.3 | 44.1 | 33 | 141 | 131 | 120 | 99.6 | 99.1 | 77.6 | 118 | 56.4
